Measurements reported in US20100015126A1, “Methods of Binding of Cross-Beta Structures By Chaperones” (priority 2006, published 2010).

Assay: Limulus Amebocyte Lysate (LAL) endotoxin assay

B1: dOVA standard: heat-denatured chicken ovalbumin (protein)
chain: GSIGAASMEFCFDVFKELKVHHANENIFYCPIAIMSALAMVYLGAKDSTRTQINKVVRFDKLPGFGDSIEAQCGTSVNVHSSLRDILNQITKPNDVYSFSLASRLYAEERYPILPEYLQCVKELYRGGLEPINFQTAADQARELINSWVESQTNGIIRNVLQPSSVDSQTAMVLVNAIVFKGLWEKAFKDEDTQAMPFRVTEQESKPVQMMYQIGLFRVASMASEKMKILELPFASGTMSMLVLLPDEVSGLEQLESIINFEKLTEWTSSNVMEERKIKVYLPRMKMEEKYNLTSVLMAMGITDVFSSSANLSGISSAESLKISQAVHAAHAEINEAGREVVGSAEAGVDAASVSEEFRADHPFLFCIKHIATNAVLFFGRCVSP
Question: For B1, which “Estimated LPS content” value (estimated with LPS standard curve) is on record?
Answer: The value was 250 ng/mL.

Question: And the “Endotoxin level (EU)” value (stock solutions)?
Answer: Its value is 115.6 EU.
